Reference: PMC12703428 (Chembiochem, 2025)
HELM strings list residues between dots; [ac] is acetyl, [am] amide, other brackets name non-standard units.

Assay: general procedure: peptide synthesis; 2-chlorotrityl resin; HCTU / 2,4,6-collidine (SPPS); HATU / 2,4,6-trimethylpyridine (solution coupling)

With “PEPTIDE1{[ac].I.G.N.[ArgP(OPh)2]}$$$$V2.0” the step yield was 9%.

With “PEPTIDE1{[ac].I.G.N.[ArgP(OPh)Ph]}$$$$V2.0” the step yield was 13%.
